Results published in US9161988B2 (Angiochem Inc., priority 2009, dated 2015).

Experiment: general procedure: Fmoc solid-phase peptide synthesis; Rink amide MBHA resin (with Nle) (0.40 mmol/g); HCTU/NMM
Conditions: whole synthesis

## SATP-AN2Cys-NH2
Waters Acquity HPLC, BEH phenyl column, detection at 229 nm, scale of the general procedure 100-μmol
  final HPLC purity: purity>95%
Scale 100 umol
  isolated yield: 26%
